In all, about 53,000 sequences went through this assay and about 3,700 (7%) were called active.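 The calls were made as follows: active = gene knockdowns whose robust z-score for IL-1 alpha signal is at least 2 or at most -2, so actives lie on both sides; inactive = the rest.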 The list shows a part of the results.

The assay can be described thus: Components of the Cytosolic LPS Sensing Pathway: Gene Identification via Genome-wide siRNA Screen.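 Also: robust z of the log signal after scaling to non-targeting control siRNA wells of the plate.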 The following applies: RAW264.7 macrophages, IL-1a HTRF, actives lie on both sides, screened at 100 nM (by protocol), cells primed 5 h with Pam3CSK4 first. The essentials: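 Using IL-1a HTRF as read-out, the screen measured release from RAW264.7 cells after 48h siRNA knockdown (100 nM), 5 h Pam3CSK4 priming and 24 h cytosolic LipidA. Values were expressed relative to negative-control wells as robust z-scores.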
For orientation: Time-resolved FRET reads energy transfer from a long-lived donor to a nearby acceptor.
Turning to GGAGACUUCAGCACCUUUGTT against C4a, the z-score was inactive: 0.455.

Turning to GGAGGUGCUGAAGUUCUACTT against Bckdha, the z-score was inactive: 1.28.

For GCAAGGCAUUUUUCUAUUUTT against Adcy10, the z-score was inactive: 0.525.

Turning to GGUGGUGUGUGAUGAGAAUTT against Pabpc6, the z-score is inactive: 0.649.

Regarding GGAUCCUAAAAUGAAAAAGTT against Cst13, the z-score was inactive: -0.866.

With GGCGGAAGUCCUUAUCAAATT against Knop1, the z-score is inactive: -0.709.

In the case of GGAGAAGGUGGCCUUCUUUTT against Fbxo46, the z-score is inactive: 0.648.

Regarding GCAGACUCUUCCAAGUAAUTT against Lrrc28, the z-score is inactive: 0.529.

Turning to GCGGACACUACCACCGUUUTT against Slc22a15, the z-score was inactive: 0.465.

Consider GGCAUAUCUGAGGUGAAUCTT against Sec23b, for which the z-score is inactive: -1.57.

Take GGUUAUGAAUCUCAUCAGUTT against St13: the z-score was inactive: 0.52.

On to GGCAUGGAAGGAGGUGCUUTT against Hecw2, for which the z-score is inactive: -0.918.

As to GGAUACAUUCCAGACAUACTT against Map3k2, the z-score was inactive: -0.0192.

Take CCAUUAAUUACGUGUUUGUTT against Dixdc1: the z-score is inactive: -0.104.

Regarding CGCUCUAGGAAAACAAUGUTT against Klb, the z-score was inactive: -0.614.

As for GGACAAGUCAAUUUGUUGGTT against Zfp36l1, the z-score is inactive: 0.277.

Regarding GGUCUUAAAUAAUCUGGUCTT against Olfr959, the z-score is inactive: 0.174.

Take CCUAUGUCACUAAGGCACGTT against Nudt13: the z-score is inactive: 0.482.

In the case of CCUAGUAAUCAGUUUGAAUTT against Ak4, the z-score was inactive: 1.17.

As to GGAACCACACCAUGUGAAATT against Prdm5, the z-score is inactive: 0.828.

GGAAAUCUCCUAGAAGAAATT against Mrps18b: the z-score was inactive: 0.439.

Turning to GGAUUGCCUCACGGUUGCUTT against Ankrd39, the z-score is inactive: -1.18.

With GCUGCUAAUAUCAAUAACGTT against Prf1, the z-score is inactive: -0.809.

Consider GGUAAGGGUCUCUUAUUGCTT against Slc22a15, for which the z-score was inactive: -0.482.

GCAACCAGAGAAAGUUGAGTT against Scx: the z-score is inactive: 0.681.

Take GGUAUAUGAGCAGCUGUCCTT against Uxt: the z-score is inactive: -0.466.

GGCCCAACUGGAACAGUAUTT against Fndc9: the z-score was inactive: 0.694.

Turning to GGUCCAGAUACAGAACUGUTT against Cd3eap, the z-score was inactive: 1.53.

Regarding GGCUCAUCUGACCAACCAGTT against Pabpc4, the z-score was inactive: -0.114.

GCAGUUGGCAUAUUUUAUGTT against Olfr1033: the z-score is inactive: -0.738.

Consider GGAGAUCCUGGAGAACUCUTT against Jph2, for which the z-score was inactive: -0.233.

As for GGUUUUGGACUUGAAUAACTT against Hectd2, the z-score was inactive: -0.121.

On to GGUUGAUUCUUAAAUUGUGTT against Slc6a5, for which the z-score was inactive: 0.331.

GGAAGUGUUAUUAACCAAGTT against Rfx6: the z-score is inactive: 0.672.

Turning to CCAGGAUUAUAGGUUUUAGTT against Vmn2r66, the z-score is inactive: 0.9.

In the case of GGUCGAGAGGUUGAAAGUATT against Arhgap30, the z-score was inactive: 0.455.

With CCCACUCAAAUCUAUCAAGTT against Otof, the z-score was inactive: -0.335.

Consider GACUGGAGAACAGCAGUUGTT against Amh, for which the z-score was inactive: -0.271.

Turning to GCUUGAUUAGGUAGGAAUATT against Stk32a, the z-score is inactive: -0.388.

For the sequence GGAUUGUCAGAAAUCCUGATT against Adat2, the z-score is inactive: -1.22.

Consider GGAGCACAAUAGUAAACUATT against Polr1a, for which the z-score was active: 2.78.

GGUCCAAGCCUUUUCUAGATT against Glmp: the z-score was inactive: 0.305.

Regarding CCAAAAUGAACAUCAACUCTT against Fam167a, the z-score is inactive: 1.09.

GGUGUUGAUGCUGAAAACUTT against Ogfod2: the z-score was inactive: -0.0895.

For the sequence GGGUCCUGUUUUUAUAAUATT against Ticam1, the z-score is inactive: -0.154.

For the sequence AGAAGAGUUACCACUAUGUTT against Phf11d, the z-score was inactive: -0.575.

Take CCCACCUUUGGUUCAGAACTT against Ctc1: the z-score was inactive: -0.0889.

Regarding GCAUUUAGGUCUGAUAAAGTT against Gpr61, the z-score is inactive: 0.00391.

On to CCCGGAGUGGUCAGAAGUATT against Mapkapk2, for which the z-score was inactive: -0.376.

For the sequence CGUGCAAUCCGAUUUGUUGTT against Acaca, the z-score is inactive: 0.993.

In the case of GGGCAAAUAUGUUCUCAUUTT against Ndst3, the z-score was inactive: 0.763.

As to GCCUGUAUGGAUGGAUUCCTT against Ahcyl2, the z-score is inactive: 0.565.

With GGAGUUCAUGAUUCUGCCATT against Eno3, the z-score was inactive: -0.0433.

For the sequence GGAAUUUCAGGAGAUACUGTT against C1qtnf12, the z-score is inactive: -1.04.

Take GGGUCCUAGAGACUUUGAATT against Txndc5: the z-score was inactive: -0.447.

With GGUCCAAGACAGCAACAUGTT against Ccdc151, the z-score was inactive: 0.34.

In the case of CGAGUGUUCCUCCAAGUGCTT against Fhl5, the z-score is inactive: 0.384.

Consider GGAGUACCAACCAGAUUUATT against Cdc26, for which the z-score is inactive: 0.75.

With GGCCAGGUAACUCUUACAATT against Trpv1, the z-score is inactive: 1.12.

On to GGGUCCUCUUUCUCCUGUUTT against Ier3, for which the z-score is inactive: -0.15.

GGCAAGCUGAAGAUGAACATT against Ntn1: the z-score is inactive: -1.14.

Take GGAGUUUCAAGAAAAAAGGTT against Map3k21: the z-score is inactive: 1.08.

As to GGUGGACCAUUCUUUUUCUTT against Zfp57, the z-score is inactive: 0.732.

In the case of GGACAUAGUGCACAAAGAGTT against Yif1a, the z-score was inactive: -1.61.

In the case of GGAGAAAACCAAACAAUGATT against Gpr156, the z-score was inactive: 0.248.

With CCGUUCAAACUACUUGCUGTT against Smad7, the z-score is inactive: 0.86.

Consider GCUAAAGUCGGAAAAUCAATT against Scoc, for which the z-score was inactive: 0.396.

For the sequence GGCUGAACAGAUAAAUCAGTT against Stoml2, the z-score was inactive: 0.405.

Consider “GGCUAAACUCAAACUCACATT against D630029K05Rik”, for which the z-score was inactive: 0.85.

Regarding CGGUUUAGAUCCCAACACUTT against Pitpnb, the z-score is inactive: -1.93.

On to GGCACAGGACUUUUAAUUUTT against Emx2, for which the z-score was inactive: 0.523.

Turning to AAAGUCUUUCACUUUCUAUTT against Zfp457, the z-score was inactive: 1.72.

Regarding GGAAAUCAAAAUCCUGAAGTT against Ulk1, the z-score was inactive: -0.523.

As for GGGACCCGGAAACAACACATT against Tyrobp, the z-score is inactive: 0.414.

As to GGAAAAGAAGCAAAACUUCTT against Tulp2, the z-score is inactive: -1.06.

GCAAAGGAAUCCUUUUCACTT against Clec1a: the z-score was inactive: 0.879.

As to GGUCCUGAGCACAUAGACUTT against Erg28, the z-score was inactive: 0.839.

For GGAGCUUAGAGGAACGAAUTT against Cyp2j9, the z-score was inactive: 1.4.

Turning to GGAAAAGCAGACUUGCACCTT against Npm2, the z-score was inactive: 0.228.

In the case of GCCUCAUUGAAAGGAUCCATT against Mgat5b, the z-score was active: -2.32.

Regarding “CCUAAAAGCAAGGCUGCCGTT against D8Ertd738e”, the z-score is inactive: -0.0523.

For GGUCAAUUAUGAAGCACCUTT against Pabpc4, the z-score was inactive: 0.158.

For GCAACAUUGGAUGUACUCATT against Hdac10, the z-score was active: -2.63.

As for GCUAAGUUAAGCUUAAUACTT against Rbl1, the z-score is active: 3.33.

In the case of GUUCCUCCACAUCCUAGACTT against Smr3a, the z-score was inactive: 0.336.

GGAAGAAGACUCAGAAAGUTT against Prkag2: the z-score is inactive: 1.43.

As for GCAGAUUGUGCAGCUAGCATT against Pax4, the z-score was inactive: 0.452.

Take GGCCAUGUGACAUAAAAAATT against Lat: the z-score is inactive: -1.35.

On to GCAAUCUGUUUAGAGAGAGTT against Slc10a5, for which the z-score was inactive: -1.16.

Consider GGAGAUCGCGUUCCUUAAGTT against Des, for which the z-score was inactive: 0.758.

On to GCAUACGAUGGGAAUUGUATT against Wdr5b, for which the z-score is inactive: -1.6.

Regarding GGGAAAAUUCCAGAAUCGCTT against Musk, the z-score is inactive: 0.315.

With GCAUCAACACCUGUUCUAUTT against Olfr376, the z-score was inactive: 1.02.

CGGCGUGUUUAUUUGCUAUTT against Rab27a: the z-score is inactive: -1.38.

Take GCUCAAACACGUGUCGCACTT against Podxl2: the z-score was inactive: 1.12.

In the case of GGACAUCUUUGACAUUAUATT against Tubg2, the z-score was inactive: -0.162.

Turning to GGCUUAAAGGGUUUUCUGATT against Rnf13, the z-score was inactive: -1.51.

Regarding GGUAAAGAUCCAGUGCCGCTT against Tbc1d10c, the z-score is inactive: -1.02.

For GCAACUUGACAUAUGACAGTT against Sh3d21, the z-score was inactive: -1.13.

For the sequence GGUUUGGUGUACUUUUCAUTT against Akr1c6, the z-score was inactive: 1.52.

For GGGAACAGGAGAAAACGGATT against Bnipl, the z-score is inactive: 1.2.

On to GGAAAACAUAAGGCAGUCUTT against Atl2, for which the z-score is inactive: -0.324.

Regarding CCAGCUAUCUCAAAAUGAGTT against Sim1, the z-score is inactive: -0.944.

As to GGAACAAAGAGUUUAAGGATT against Olfr1415, the z-score is inactive: 0.379.

With GCCGUUUAAAACUUGCUAUTT against Trpc6, the z-score is inactive: 1.47.

Take CCAUAAGUGCCCUCGAGAUTT against Krt39: the z-score was inactive: -1.08.

Consider CAGCUGAGAUUGAUGGCCATT against Olfr313, for which the z-score is inactive: -0.6.

(Values after PubChem BioAssay AID1508600 (Functional Genomics Laboratory (NCATS/FGL), 2020).)
